Assay results: patent US20240287081A1, “PERFLUOROALKANE SUBSTITUTED PYRAZOLO[3,4-D]PYRIMIDIN AND PYRROLO[2,3-D]PYRIMIDIN COMPOUNDS AND USES THEREOF” (ICAHN SCHOOL OF MEDICINE AT MOUNT SINAI, priority 2021, published 2024)
Some results were stated once for a whole list of compounds, not compound by compound.

Test system: ptc>dRet^M955T flies
Test: Fly rescue assay (Drosophila MTC model ptc>dRet^M955T)
Format: in vivo
Conditions: compound in fly food, 13 d at 25° C., baseline viability 0%
Description: Kinase-mutated fly stocks were obtained from Bloomington Drosophila Stock Center (BDSC; Bloomington, IN). The active mutant form of Drosophila Ret (dRet^955T) carries an M955T mutation corresponding to the M918T mutation commonly reported for multiple endocrine neoplasia (MEN) type 2B patients12,14,16,34. The ptc-gal4, UAS-GFP;UAS-dRet^M955T/SM5tub-gal80-TM6B transgenic flies were prepared according to standard protocols and crossed with non-transgenic w-flies (BDSC) to generate ptc-gal4, UAS-GFP; UAS-dRet^M955T(ptc>dRet^M955T) flies for chemical screening.
All drugs were synthesized in-house. All compounds were dissolved in DMSO (Sigma-Aldrich; St. Louis, MO) and mixed with semi-defined fly medium (BDSC) to make drug food (0.1% final DMSO concentration). For drug screening, ptc>dRet^M955T embryos were raised until adulthood on drug food for 13 d at 25° C. The number of empty pupal cases (i.e., adults) ? that of total pupal cases (P) to determine % viability. Fly randomization was used throughout the assays.
In this model, compounds are assessed based on their ability to suppress oncogenic Ret^M955T-induced tumors, which can be quantified as ‘rescue’ from lethality. […] The baseline viability of ptc>Ret^1955T flies was calibrated to zero, which creates a high bar for rescue but also reduces false-positive hits. […]

Row | SMILES | rescue (percent viability of adult flies, adults/pupae×100) (listed as 65) [%] | rescue (percent viability of adult flies, adults/pupae×100) (listed as 63, 2,2,2-trifluoroacetate) [%]
1 | CC(C)n1nc(-c2ccc(NC(=O)Nc3ccc(C(F)(C(F)(F)F)C(F)(F)C(F)(F)F)cc3)cc2)c2c(N)ncnc21 (centres unmarked) [APS-8-6-2, 1-(4-(4-Amino-1-isopropyl-1H-pyrazolo[3,4-d]pyrimidin-3-yl)phenyl)-3-(4-(perfluorobutan-2-yl)phenyl)urea] | > 99 | –
2 | CC(C)n1cc(-c2ccc(NC(=O)Nc3ccc(C(F)(C(F)(F)F)C(F)(F)C(F)(F)F)cc3)cc2)c2c(N)ncnc21 (centres unmarked) [APS-8-82-2, 1-(4-(4-Amino-7-isopropyl-7H-pyrrolo[2,3-d]pyrimidin-5-yl)phenyl)-3-(4-(perfluorobutan-2-yl)phenyl)urea 2,2,2-trifluoroacetate] | – | > 99
